Measured values reported in the supplement of paper PMC10849652.
Some of the results follow.

Protein sequences, listed by entry. Tags and fused reporters are not part of them. Lines headed by an entry give the natural chain unless they say otherwise; changes in a name come on top.
UniProt Q8N4T8: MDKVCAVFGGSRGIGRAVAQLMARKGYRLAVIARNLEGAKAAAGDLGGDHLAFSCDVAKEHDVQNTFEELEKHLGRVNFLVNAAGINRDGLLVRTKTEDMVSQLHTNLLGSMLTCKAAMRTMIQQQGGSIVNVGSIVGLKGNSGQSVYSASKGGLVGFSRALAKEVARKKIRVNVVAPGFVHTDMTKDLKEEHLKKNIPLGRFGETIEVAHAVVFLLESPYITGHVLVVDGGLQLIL
UniProt A6NHX0: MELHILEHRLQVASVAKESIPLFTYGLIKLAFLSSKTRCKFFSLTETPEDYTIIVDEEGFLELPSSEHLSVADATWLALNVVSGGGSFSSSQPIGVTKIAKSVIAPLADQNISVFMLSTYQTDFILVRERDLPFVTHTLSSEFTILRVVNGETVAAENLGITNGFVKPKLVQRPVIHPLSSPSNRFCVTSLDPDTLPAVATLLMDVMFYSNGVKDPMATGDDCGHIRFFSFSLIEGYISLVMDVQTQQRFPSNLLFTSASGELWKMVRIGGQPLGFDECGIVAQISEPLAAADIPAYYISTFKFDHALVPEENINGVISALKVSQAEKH
UniProt Q7Z6B0: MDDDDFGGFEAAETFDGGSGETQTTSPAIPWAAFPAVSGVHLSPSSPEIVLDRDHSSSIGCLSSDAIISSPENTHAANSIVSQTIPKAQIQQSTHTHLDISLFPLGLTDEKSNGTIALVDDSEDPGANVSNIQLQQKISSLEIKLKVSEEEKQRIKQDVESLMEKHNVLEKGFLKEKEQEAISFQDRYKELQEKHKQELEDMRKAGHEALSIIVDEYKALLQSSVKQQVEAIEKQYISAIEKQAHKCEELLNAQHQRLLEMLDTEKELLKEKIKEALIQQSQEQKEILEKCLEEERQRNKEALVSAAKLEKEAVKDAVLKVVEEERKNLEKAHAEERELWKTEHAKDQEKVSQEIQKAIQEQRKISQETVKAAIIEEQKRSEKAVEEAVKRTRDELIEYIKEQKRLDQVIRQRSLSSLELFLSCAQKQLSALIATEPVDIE
UniProt Q8WUD4: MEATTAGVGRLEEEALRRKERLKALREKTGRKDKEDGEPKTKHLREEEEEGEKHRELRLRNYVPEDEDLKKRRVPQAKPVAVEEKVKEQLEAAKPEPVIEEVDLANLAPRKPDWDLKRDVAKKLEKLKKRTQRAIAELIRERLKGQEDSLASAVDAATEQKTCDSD
UniProt Q96ER9: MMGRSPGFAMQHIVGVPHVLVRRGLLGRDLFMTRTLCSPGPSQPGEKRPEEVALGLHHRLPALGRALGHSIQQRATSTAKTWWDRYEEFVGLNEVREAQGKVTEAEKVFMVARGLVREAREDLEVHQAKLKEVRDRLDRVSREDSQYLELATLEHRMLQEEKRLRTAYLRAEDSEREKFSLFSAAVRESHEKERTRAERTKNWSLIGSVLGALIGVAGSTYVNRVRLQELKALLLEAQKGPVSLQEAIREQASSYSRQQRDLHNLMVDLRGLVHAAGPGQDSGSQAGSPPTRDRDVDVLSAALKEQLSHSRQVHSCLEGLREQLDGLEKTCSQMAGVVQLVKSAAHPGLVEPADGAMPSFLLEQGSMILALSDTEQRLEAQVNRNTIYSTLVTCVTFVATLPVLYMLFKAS
UniProt P42575: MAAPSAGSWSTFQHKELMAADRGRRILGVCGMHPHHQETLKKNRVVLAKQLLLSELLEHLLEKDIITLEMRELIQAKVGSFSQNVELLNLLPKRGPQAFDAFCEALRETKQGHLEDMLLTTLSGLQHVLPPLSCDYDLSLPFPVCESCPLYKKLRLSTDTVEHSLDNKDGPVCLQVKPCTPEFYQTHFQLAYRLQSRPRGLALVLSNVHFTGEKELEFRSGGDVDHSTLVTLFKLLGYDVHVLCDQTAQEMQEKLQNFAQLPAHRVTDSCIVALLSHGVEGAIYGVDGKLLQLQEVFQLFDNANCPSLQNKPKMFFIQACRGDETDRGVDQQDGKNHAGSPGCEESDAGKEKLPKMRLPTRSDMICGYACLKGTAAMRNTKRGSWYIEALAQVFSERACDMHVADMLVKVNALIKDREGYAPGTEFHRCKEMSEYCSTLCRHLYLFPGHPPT
UniProt Q8IX12: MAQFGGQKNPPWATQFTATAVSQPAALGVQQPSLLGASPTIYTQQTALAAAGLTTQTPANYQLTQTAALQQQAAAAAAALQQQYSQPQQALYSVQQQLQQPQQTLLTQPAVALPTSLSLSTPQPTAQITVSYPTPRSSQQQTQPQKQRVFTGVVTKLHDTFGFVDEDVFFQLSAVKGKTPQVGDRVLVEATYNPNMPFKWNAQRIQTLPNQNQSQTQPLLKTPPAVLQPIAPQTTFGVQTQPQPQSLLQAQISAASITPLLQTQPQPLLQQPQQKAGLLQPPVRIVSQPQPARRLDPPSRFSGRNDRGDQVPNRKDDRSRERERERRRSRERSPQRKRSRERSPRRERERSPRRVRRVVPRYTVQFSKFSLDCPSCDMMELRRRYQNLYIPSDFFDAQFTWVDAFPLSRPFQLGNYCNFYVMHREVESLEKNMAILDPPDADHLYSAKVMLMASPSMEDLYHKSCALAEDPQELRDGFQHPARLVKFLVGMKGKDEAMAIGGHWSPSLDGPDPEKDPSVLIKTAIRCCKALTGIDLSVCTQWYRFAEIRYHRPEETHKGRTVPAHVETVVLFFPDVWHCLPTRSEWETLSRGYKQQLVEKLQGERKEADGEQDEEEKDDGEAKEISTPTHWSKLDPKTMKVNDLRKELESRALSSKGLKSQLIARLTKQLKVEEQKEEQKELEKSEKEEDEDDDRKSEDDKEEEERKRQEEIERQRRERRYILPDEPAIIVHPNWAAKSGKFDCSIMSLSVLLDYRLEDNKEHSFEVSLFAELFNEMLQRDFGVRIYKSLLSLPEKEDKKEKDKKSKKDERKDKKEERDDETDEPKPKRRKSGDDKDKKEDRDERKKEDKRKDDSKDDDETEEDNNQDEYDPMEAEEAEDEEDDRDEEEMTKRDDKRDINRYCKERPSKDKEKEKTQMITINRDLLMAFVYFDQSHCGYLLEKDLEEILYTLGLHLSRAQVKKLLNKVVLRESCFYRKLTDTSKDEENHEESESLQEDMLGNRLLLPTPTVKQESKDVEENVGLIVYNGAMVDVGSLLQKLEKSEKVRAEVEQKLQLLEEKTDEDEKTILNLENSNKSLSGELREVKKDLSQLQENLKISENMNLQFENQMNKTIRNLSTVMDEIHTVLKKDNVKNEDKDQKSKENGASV
UniProt Q8N163, whole entry, looked up: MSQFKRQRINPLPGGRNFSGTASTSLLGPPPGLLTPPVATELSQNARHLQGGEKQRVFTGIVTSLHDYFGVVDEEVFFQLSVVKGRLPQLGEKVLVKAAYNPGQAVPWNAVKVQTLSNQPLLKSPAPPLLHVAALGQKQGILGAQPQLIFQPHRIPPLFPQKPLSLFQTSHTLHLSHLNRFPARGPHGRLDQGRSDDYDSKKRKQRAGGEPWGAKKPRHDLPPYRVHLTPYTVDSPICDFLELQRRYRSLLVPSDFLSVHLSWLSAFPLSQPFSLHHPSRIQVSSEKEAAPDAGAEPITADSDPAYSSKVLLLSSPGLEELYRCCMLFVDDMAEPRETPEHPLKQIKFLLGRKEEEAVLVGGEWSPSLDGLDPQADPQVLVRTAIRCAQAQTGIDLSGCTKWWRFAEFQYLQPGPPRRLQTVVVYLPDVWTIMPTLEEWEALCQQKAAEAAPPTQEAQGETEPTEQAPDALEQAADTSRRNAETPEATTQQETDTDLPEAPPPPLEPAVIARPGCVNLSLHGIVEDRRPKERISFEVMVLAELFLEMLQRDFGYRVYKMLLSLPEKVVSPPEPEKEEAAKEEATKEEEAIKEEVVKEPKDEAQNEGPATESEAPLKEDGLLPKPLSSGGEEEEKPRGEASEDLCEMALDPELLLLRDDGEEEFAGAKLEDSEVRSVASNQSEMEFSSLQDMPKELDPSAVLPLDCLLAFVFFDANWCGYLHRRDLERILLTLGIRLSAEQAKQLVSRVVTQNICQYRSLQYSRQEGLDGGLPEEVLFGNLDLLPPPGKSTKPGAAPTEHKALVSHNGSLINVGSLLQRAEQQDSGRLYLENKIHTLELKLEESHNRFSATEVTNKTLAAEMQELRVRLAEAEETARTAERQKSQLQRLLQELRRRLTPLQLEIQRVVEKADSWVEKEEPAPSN
UniProt Q7L3B6: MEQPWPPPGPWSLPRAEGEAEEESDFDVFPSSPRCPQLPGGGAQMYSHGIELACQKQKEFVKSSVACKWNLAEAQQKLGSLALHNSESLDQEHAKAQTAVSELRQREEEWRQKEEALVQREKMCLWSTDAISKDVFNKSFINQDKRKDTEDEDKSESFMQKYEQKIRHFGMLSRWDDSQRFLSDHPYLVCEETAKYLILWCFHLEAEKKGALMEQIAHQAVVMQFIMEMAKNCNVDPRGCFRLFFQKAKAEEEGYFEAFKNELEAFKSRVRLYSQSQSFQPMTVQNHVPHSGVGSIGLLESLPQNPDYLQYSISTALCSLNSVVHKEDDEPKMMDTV
UniProt Q9P031: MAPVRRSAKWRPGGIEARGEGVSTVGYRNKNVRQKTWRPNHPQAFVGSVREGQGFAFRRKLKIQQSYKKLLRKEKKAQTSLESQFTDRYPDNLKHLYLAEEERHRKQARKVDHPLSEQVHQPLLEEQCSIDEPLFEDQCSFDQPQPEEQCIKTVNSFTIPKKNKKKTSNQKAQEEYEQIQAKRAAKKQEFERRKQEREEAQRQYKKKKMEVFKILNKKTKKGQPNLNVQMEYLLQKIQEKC
UniProt O75909: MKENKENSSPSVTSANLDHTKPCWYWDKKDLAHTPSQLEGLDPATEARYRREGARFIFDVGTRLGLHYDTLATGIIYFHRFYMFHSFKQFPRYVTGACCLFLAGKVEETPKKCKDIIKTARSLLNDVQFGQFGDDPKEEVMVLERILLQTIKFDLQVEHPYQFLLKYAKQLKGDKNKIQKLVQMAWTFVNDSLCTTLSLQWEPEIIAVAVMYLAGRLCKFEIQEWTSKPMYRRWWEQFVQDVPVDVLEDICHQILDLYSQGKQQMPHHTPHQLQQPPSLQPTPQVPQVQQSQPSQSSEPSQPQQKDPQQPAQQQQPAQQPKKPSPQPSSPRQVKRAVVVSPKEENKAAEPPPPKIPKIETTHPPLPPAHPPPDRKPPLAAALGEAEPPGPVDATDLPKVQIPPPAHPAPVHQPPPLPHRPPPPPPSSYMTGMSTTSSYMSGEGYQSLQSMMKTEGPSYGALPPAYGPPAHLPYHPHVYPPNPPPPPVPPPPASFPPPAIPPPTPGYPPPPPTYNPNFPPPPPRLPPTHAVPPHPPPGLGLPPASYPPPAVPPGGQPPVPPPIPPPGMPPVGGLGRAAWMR
UniProt Q8IWY9: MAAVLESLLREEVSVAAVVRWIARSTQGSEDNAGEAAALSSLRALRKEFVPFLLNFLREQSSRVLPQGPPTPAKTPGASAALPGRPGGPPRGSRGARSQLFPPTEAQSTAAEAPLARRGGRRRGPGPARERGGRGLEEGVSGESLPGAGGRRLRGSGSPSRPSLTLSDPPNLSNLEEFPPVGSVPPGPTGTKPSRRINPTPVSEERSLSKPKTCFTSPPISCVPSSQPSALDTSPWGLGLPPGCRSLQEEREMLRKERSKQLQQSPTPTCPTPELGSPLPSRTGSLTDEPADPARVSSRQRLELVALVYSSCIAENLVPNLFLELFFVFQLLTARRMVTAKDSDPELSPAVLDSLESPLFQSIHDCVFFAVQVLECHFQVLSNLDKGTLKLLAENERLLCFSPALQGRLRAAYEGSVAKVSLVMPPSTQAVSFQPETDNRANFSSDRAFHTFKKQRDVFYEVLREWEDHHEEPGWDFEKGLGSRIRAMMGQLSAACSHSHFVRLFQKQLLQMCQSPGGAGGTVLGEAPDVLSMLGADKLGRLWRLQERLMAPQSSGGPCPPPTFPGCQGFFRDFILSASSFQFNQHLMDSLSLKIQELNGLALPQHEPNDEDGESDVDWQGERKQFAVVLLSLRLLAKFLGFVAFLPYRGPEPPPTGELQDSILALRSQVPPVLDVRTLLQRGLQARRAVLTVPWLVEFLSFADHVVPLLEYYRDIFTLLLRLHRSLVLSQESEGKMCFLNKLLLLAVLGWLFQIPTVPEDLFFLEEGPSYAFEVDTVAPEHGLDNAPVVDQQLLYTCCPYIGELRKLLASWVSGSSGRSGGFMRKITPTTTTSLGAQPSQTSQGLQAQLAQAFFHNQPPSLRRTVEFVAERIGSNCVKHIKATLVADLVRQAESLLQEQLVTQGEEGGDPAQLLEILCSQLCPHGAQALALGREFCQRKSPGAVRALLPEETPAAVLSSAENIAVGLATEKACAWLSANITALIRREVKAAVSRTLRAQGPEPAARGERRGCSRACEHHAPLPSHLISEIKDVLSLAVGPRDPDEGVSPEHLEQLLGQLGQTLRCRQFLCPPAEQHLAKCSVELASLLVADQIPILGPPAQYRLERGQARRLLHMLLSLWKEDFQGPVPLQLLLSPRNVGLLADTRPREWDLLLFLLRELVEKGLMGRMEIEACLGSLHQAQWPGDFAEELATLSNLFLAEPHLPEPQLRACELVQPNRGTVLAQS

Legend:
Test in all cases: log2 fold change, soluble protein after heating vs DMSO (PISA); higher = thermal stabilisation; K562 cells, 10 uM, 30 min; active = over 0.2 and 3.5 SD of the protein, either way, in both replicates (recomputed)
[1] = compound: Cc1ccc(NC(=O)c2ccc(CN3CC[C@H](N(C)C)C3)c(C(F)(F)F)c2)cc1Nc1nccc(-c2cncnc2)n1 [bafetinib]
Procedure, shortened: (§1)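 K562 cells (2×10^6 cells/mL) were treated with 10 μM compound for 30 min, and aliquots were heated for 3 min over 48°C-58°C. Pooled aliquots were extracted in PBS with 0.5% NP-40 at 4°C, and the supernatant after 21,000xg for 90 min was measured by TMTpro 16plex LC-MS/MS with channel sums equalised. Reported thermal stability, relative to control samples and from duplicates, is a log2 fold change.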

[2] = compound: Cc1cccc(CC(=O)N2CCc3c2ccc(-c2cn(C)c4ncnc(N)c24)c3F)n1
Procedure, shortened: as §1

[3] = compound: Cc1cn(-c2cc(NC(=O)c3ccc(C)c(Nc4nccc(-c5cccnc5)n4)c3)cc(C(F)(F)F)c2)cn1 [nilotinib]
Procedure, shortened: as §1

[4] = compound: Cc1nc(Nc2n[nH]c3c2CN(C(=O)N[C@H](CN(C)C)c2ccccc2)C3(C)C)c2sccc2n1
Procedure, shortened: as §1

[5] = compound: Cc1nc(Nc2ncc(C(=O)Nc3c(C)cccc3Cl)s2)cc(N2CCN(CCO)CC2)n1 [dasatinib]
Procedure, shortened: as §1

[6] = compound: Cc1ncc(-c2ccnc(Nc3ccc(S(C)(=O)=O)cc3)n2)n1C(C)C
Procedure, shortened: as §1

[7] = compound: Cn1cc(-c2ccc3c(c2)CCN3C(=O)Cc2cccc(C(F)(F)F)c2)c2c(N)ncnc21
Procedure, shortened: as §1

[8] = compound: Cn1cc(-c2ccc3nnc(C(F)(F)c4ccc5ncccc5c4)n3n2)cn1
Procedure, shortened: as §1

[9] = compound: Cn1cncc1[C@@](N)(c1ccc(Cl)cc1)c1ccc2c(c1)c(-c1cccc(Cl)c1)cc(=O)n2C [tipifarnib]
Procedure, shortened: as §1

[10] = compound: FC(F)(F)c1ccc(/C=C/c2nc(COc3ccc(CCCCn4ccnn4)cc3)co2)cc1 [mubritinib]
Procedure, shortened: as §1

[11] = compound: NC(=O)Nc1cc(-c2cccc(F)c2)sc1C(=O)N[C@H]1CCCNC1
Procedure, shortened: as §1

[12] = compound: NC(=O)c1cnc(N[C@@H]2CCCC[C@@H]2N)nc1Nc1cccc(-n2nccn2)c1
Procedure, shortened: as §1

[13] = compound: NC1(c2ccc(-c3nc4ccn5c(=O)[nH]nc5c4cc3-c3ccccc3)cc2)CCC1
Procedure, shortened: as §1

[14] = compound: NCC(=O)Nc1ccc(-n2nc(C(F)(F)F)cc2-c2ccc3c(ccc4ccccc43)c2)cc1
Procedure, shortened: as §1

[15] = compound: Nc1ccccc1NC(=O)c1ccc(CNC(=O)OCc2cccnc2)cc1 [entinostat]
Procedure, shortened: as §1

[16] = compound: O=C(CCCCCCC(=O)Nc1ccccc1)NO [vorinostat]
Procedure, shortened: as §1

[17] = compound: O=C(CCCCCCNC(=O)c1cnc(N(c2ccccc2)c2ccccc2Cl)nc1)NO [citarinostat]
Procedure, shortened: as §1

[18] = compound: O=C(O)c1ccc2c(c1)nc(Nc1cccc(Cl)c1)c1ccncc12 [silmitasertib]
Procedure, shortened: as §1

[19] = compound: O=C1NC(=O)C(c2cnc3ccccn23)=C1c1cn2c3c(cc(F)cc13)CN(C(=O)N1CCCCC1)CC2
Procedure, shortened: as §1

[20] = compound: c1cc(OCCN2CCCCC2)cc(-c2n[nH]c3ccc(-c4nnc[nH]4)cc23)c1
Procedure, shortened: as §1

Target | log2 fold change [1] | log2 fold change [2] | log2 fold change [3] | log2 fold change [4] | log2 fold change [5] | log2 fold change [6] | log2 fold change [7] | log2 fold change [8] | log2 fold change [9] | log2 fold change [10] | log2 fold change [11] | log2 fold change [12] | log2 fold change [13] | log2 fold change [14] | log2 fold change [15] | log2 fold change [16] | log2 fold change [17] | log2 fold change [18] | log2 fold change [19] | log2 fold change [20]
CBR4 (UniProt Q8N4T8) | inactive: -0.072 | inactive: -0.098 | inactive: 0.017 | inactive: 0.036 | inactive: -0.015 | inactive: -0.042 | inactive: 0.02 | inactive: 0 | inactive: -0.002 | inactive: -0.028 | inactive: 0.041 | inactive: 0.01 | inactive: -0.002 | inactive: -0.026 | inactive: 0.001 | inactive: -0.042 | inactive: -0.043 | inactive: 0.029 | inactive: -0.042 | inactive: -0.055
CCDC127 (UniProt Q96BQ5) | inactive: 0.024 | inactive: -0.028 | inactive: 0.058 | inactive: -0.035 | inactive: 0.031 | inactive: -0.026 | inactive: 0.027 | inactive: 0.041 | inactive: 0 | inactive: -0.019 | inactive: -0.044 | inactive: -0.016 | inactive: -0.027 | inactive: -0.018 | inactive: 0.065 | inactive: -0.028 | inactive: -0.021 | inactive: 0.055 | inactive: 0.055 | inactive: -0.068
CASTOR2 (UniProt A6NHX0) | inactive: -0.063 | inactive: 0.019 | inactive: 0.011 | inactive: 0.02 | inactive: -0.024 | inactive: -0.039 | inactive: -0.019 | inactive: -0.032 | inactive: -0.311 | inactive: -0.032 | inactive: 0.076 | inactive: 0.113 | inactive: -0.034 | inactive: 0.06 | inactive: -0.072 | inactive: 0.056 | inactive: 0.04 | inactive: -0.03 | inactive: -0.005 | inactive: 0.076
CCDC91 (UniProt Q7Z6B0) | inactive: -0.025 | inactive: -0.028 | inactive: -0.008 | inactive: -0.011 | inactive: 0.005 | inactive: -0.024 | inactive: -0.058 | inactive: 0.028 | inactive: -0.001 | inactive: 0.047 | inactive: -0.03 | inactive: -0.019 | inactive: -0.029 | inactive: -0.052 | inactive: 0 | inactive: 0.014 | inactive: 0.003 | inactive: 0.009 | inactive: -0.085 | inactive: 0.008
CARM1 (UniProt Q86X55) | inactive: -0.042 | inactive: -0.005 | inactive: -0.014 | inactive: 0.004 | inactive: 0.015 | inactive: -0.006 | inactive: 0.021 | inactive: 0.031 | inactive: -0.023 | inactive: 0.045 | inactive: -0.008 | inactive: 0.01 | inactive: -0.03 | inactive: 0.002 | inactive: -0.009 | inactive: 0.009 | inactive: 0.041 | inactive: -0.007 | inactive: -0.04 | inactive: -0.019
CCDC12 (UniProt Q8WUD4) | inactive: -0.026 | inactive: -0.059 | inactive: -0.007 | inactive: 0 | inactive: 0.078 | inactive: 0.029 | inactive: -0.059 | inactive: -0.012 | inactive: -0.008 | inactive: 0.042 | inactive: 0.001 | inactive: -0.018 | inactive: 0.027 | inactive: -0.118 | inactive: -0.017 | inactive: -0.052 | inactive: -0.003 | inactive: -0.032 | inactive: -0.063 | inactive: 0.013
CCDC51 (UniProt Q96ER9) | inactive: -0.156 | inactive: 0.112 | inactive: -0.006 | inactive: 0.003 | inactive: -0.048 | inactive: -0.041 | inactive: 0.042 | inactive: -0.005 | inactive: -0.075 | inactive: 0.016 | inactive: 0.12 | inactive: -0.034 | inactive: -0.086 | inactive: 0.007 | inactive: 0.074 | inactive: 0.034 | inactive: 0.036 | inactive: -0.004 | inactive: -0.082 | inactive: 0.007
CASP2 (UniProt P42575) | inactive: 0.041 | inactive: -0.035 | inactive: -0.037 | inactive: 0.076 | inactive: -0.165 | inactive: 0.114 | inactive: 0.105 | inactive: -0.056 | inactive: -0.118 | inactive: 0.006 | inactive: -0.317 | inactive: -0.047 | inactive: -0.099 | inactive: 0.065 | inactive: 0.017 | inactive: 0.13 | inactive: 0.058 | inactive: 0.051 | inactive: -0.008 | inactive: -0.032
CCAR1 (UniProt Q8IX12) | inactive: 0.036 | inactive: 0.036 | inactive: -0.055 | inactive: -0.033 | inactive: -0.112 | inactive: -0.095 | inactive: 0.079 | inactive: 0.019 | inactive: -0.091 | inactive: 0.122 | inactive: 0 | inactive: -0.068 | inactive: -0.198 | inactive: -0.035 | inactive: 0.021 | inactive: 0.067 | inactive: 0.018 | inactive: -0.049 | inactive: -0.043 | inactive: -0.016
CCAR2 isoform 2 (UniProt Q8N163) | inactive: 0.007 | inactive: 0.01 | inactive: -0.053 | inactive: -0.023 | inactive: -0.176 | inactive: -0.157 | inactive: -0.009 | inactive: 0.042 | inactive: 0.011 | inactive: 0.031 | inactive: -0.056 | inactive: -0.106 | inactive: -0.013 | inactive: -0.088 | inactive: 0.089 | inactive: 0.168 | inactive: 0.033 | inactive: -0.039 | inactive: -0.151 | inactive: 0.033
CCT8 (UniProt P50990) | inactive: 0.009 | inactive: 0.007 | inactive: -0.052 | inactive: 0.013 | inactive: -0.003 | inactive: 0.01 | inactive: -0.001 | inactive: 0.006 | inactive: 0.019 | inactive: 0.013 | inactive: 0.019 | inactive: 0.009 | inactive: -0.019 | inactive: 0.015 | inactive: 0.005 | inactive: 0.029 | inactive: 0.015 | inactive: -0.024 | inactive: 0.009 | inactive: -0.021
CCDC25 (UniProt Q86WR0) | inactive: 0 | inactive: 0.122 | inactive: -0.006 | inactive: -0.068 | inactive: -0.026 | inactive: -0.022 | inactive: 0.008 | inactive: -0.013 | inactive: -0.053 | inactive: 0.175 | inactive: -0.001 | inactive: -0.054 | inactive: -0.015 | inactive: 0 | inactive: 0.029 | inactive: 0.112 | inactive: 0.076 | inactive: -0.003 | inactive: 0.008 | inactive: -0.044
CDC37L1 (UniProt Q7L3B6) | inactive: -0.215 | inactive: 0.027 | inactive: -0.026 | inactive: -0.167 | inactive: -0.088 | inactive: 0.022 | inactive: 0.018 | inactive: 0.121 | inactive: 0.034 | inactive: 0.172 | inactive: -0.061 | inactive: -0.074 | inactive: 0.018 | inactive: 0.033 | inactive: -0.011 | inactive: -0.017 | inactive: -0.064 | inactive: 0.07 | inactive: -0.022 | inactive: -0.102
CCDC59 (UniProt Q9P031) | inactive: 0.117 | inactive: -0.041 | inactive: 0.032 | inactive: 0.048 | inactive: 0.037 | inactive: 0.028 | inactive: -0.277 | inactive: -0.13 | inactive: 0.09 | inactive: -0.056 | inactive: -0.033 | inactive: 0.122 | inactive: 0.166 | inactive: 0.139 | inactive: -0.149 | inactive: -0.099 | inactive: -0.178 | inactive: 0.154 | inactive: 0.21 | inactive: 0.07
CCNK isoform 4 (UniProt O75909) | inactive: 0.106 | inactive: -0.021 | inactive: 0.045 | inactive: 0.046 | inactive: -0.013 | inactive: -0.025 | inactive: -0.118 | inactive: -0.069 | inactive: 0.096 | inactive: 0.006 | inactive: -0.053 | inactive: -0.104 | inactive: 0.044 | inactive: -0.091 | inactive: -0.044 | inactive: -0.021 | inactive: -0.007 | inactive: -0.046 | inactive: 0.006 | active: -0.305
CDAN1 (UniProt Q8IWY9) | inactive: -0.012 | inactive: -0.014 | inactive: 0.064 | inactive: -0.195 | active: -0.582 | inactive: -0.017 | inactive: -0.023 | inactive: 0.008 | inactive: 0.011 | inactive: 0.056 | inactive: -0.033 | inactive: -0.042 | inactive: -0.192 | inactive: -0.091 | inactive: 0.051 | inactive: 0.022 | inactive: -0.011 | inactive: 0.095 | inactive: 0.036 | inactive: -0.018

An excerpt of these results, with tabs.
Target	log2 fold change [1]	log2 fold change [2]	log2 fold change [3]	log2 fold change [4]	log2 fold change [5]	log2 fold change [6]	log2 fold change [7]	log2 fold change [8]	log2 fold change [9]	log2 fold change [10]	log2 fold change [11]	log2 fold change [12]	log2 fold change [13]	log2 fold change [14]	log2 fold change [15]	log2 fold change [16]	log2 fold change [17]	log2 fold change [18]	log2 fold change [19]	log2 fold change [20]
CCAR2 isoform 2 (UniProt Q8N163)	inactive: 0.007	inactive: 0.01	inactive: -0.053	inactive: -0.023	inactive: -0.176	inactive: -0.157	inactive: -0.009	inactive: 0.042	inactive: 0.011	inactive: 0.031	inactive: -0.056	inactive: -0.106	inactive: -0.013	inactive: -0.088	inactive: 0.089	inactive: 0.168	inactive: 0.033	inactive: -0.039	inactive: -0.151	inactive: 0.033
CCT8 (UniProt P50990)	inactive: 0.009	inactive: 0.007	inactive: -0.052	inactive: 0.013	inactive: -0.003	inactive: 0.01	inactive: -0.001	inactive: 0.006	inactive: 0.019	inactive: 0.013	inactive: 0.019	inactive: 0.009	inactive: -0.019	inactive: 0.015	inactive: 0.005	inactive: 0.029	inactive: 0.015	inactive: -0.024	inactive: 0.009	inactive: -0.021
